Data on 6 substances can be found in publication PMC8943889 (Chemical Science, 2022).

HELM strings list residues between dots; [ac] is acetyl, [am] amide, other brackets name non-standard units.

The nature of data set [1]: general procedure: Fmoc solid-phase peptide synthesis; 2-chlorotrityl resin (brevicidine series); Rink amide resin (laterocidine series); BOP/DIPEA; HATU/DIPEA for Dap9-Brev macrolactamization. The following applies: whole synthesis; for isolated yield: over 28 steps; for outcome: scale of the general procedure 0.1 mmol.
The nature of data set [2]: general procedure: Fmoc solid-phase peptide synthesis; 2-chlorotrityl resin; BOP/DIPEA; HATU/DIPEA for Dap9-Brev macrolactamization. The settings on record: whole synthesis.
Data set [3] in a line: general procedure: Fmoc solid-phase peptide synthesis; Rink amide MBHA; BOP/DIPEA; HATU/DIPEA for Dap9-Brev macrolactamization. The following applies: whole synthesis, scale 0.25 mmol.

In data set [1] (scale 0.1 mmol), “PEPTIDE1{[4MeHex].N.Y.W.[Orn].[D-Orn].G.[Orn].[dW].[dT].[dI].G.[dS]}$PEPTIDE1,PEPTIDE1,10:R3-13:R2$$$V2.0” had an isolated yield of 2% and an isolated mass of 3 mg.

Turning to “PEPTIDE1{[4MeHex].[dN].[dY].[dW].[D-Orn].[Orn].G.[D-Orn].W.S.I.G.S}$PEPTIDE1,PEPTIDE1,10:R3-13:R2$$$V2.0”, in data set [1] (scale 0.065 mmol), the isolated yield is 13% and the isolated mass worked out at 13 mg.

Regarding “PEPTIDE1{[4MeHex].[dN].[dY].[dW].[D-Orn].[Orn].G.[D-Orn].W.T.I.G.S}$PEPTIDE1,PEPTIDE1,10:R3-13:R2$$$V2.0”, in data set [2], the isolated mass turned out to be 13 mg. Further, in data set [2] (overall, over 28 steps, scale of the general procedure 0.1 mmol), the isolated yield was 9%. Also, the outcome in data set [1] is “further elongation of the peptide failed due to an O → N acyl shift”.

As for “PEPTIDE1{[4MeHex].[dN].[dY].[dW].[D-Orn].[Orn].G.[D-Orn].W.[Dap].I.G.S}$PEPTIDE1,PEPTIDE1,10:R3-13:R2$$$V2.0”, in data set [1] (scale 0.1 mmol), the isolated yield was 13% and the isolated mass amounted to 20 mg.

Turning to “PEPTIDE1{[4MeHex].[dN].[dY].[dW].[D-Orn].[Orn].G.[D-Orn].W.[MeDap].I.G.S}$PEPTIDE1,PEPTIDE1,10:R3-13:R2$$$V2.0”, the outcome in data set [1] is “also attempted for MeDap9-Brev (7) but the on-resin azide reduction step caused peptide decomposition”.

With “PEPTIDE1{[iPel].[dS].[dY].[dW].[D-Orn].[Orn].G.[D-Orn].W.[MeDap].I.N.G.G}$PEPTIDE1,PEPTIDE1,10:R3-14:R2$$$V2.0”, the isolated yield in data set [3] (over 29 steps) amounted to 2.4%. Besides, in data set [3], the “final purity (method not given)” value is reported as “purity >95%” and the isolated mass came to 9.7 mg.
